Data source: PubChem BioAssay AID1259254 (NCATS, 2017)
In all, the deposit lists about 59,000 reagents; below is an unselected part. Of all reagents, about 1,550 (2.6%) are marked active. 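G2 share is only a proxy for re-replication; each gene was hit by three separate siRNAs, and active genes were retested.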 The numbers tell different reagents against one gene apart. Further read-outs or replicates are left out here. Reagent sequences are not shown. The record does not give: the amount of reagent.

Purpose: 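Genome-wide screen for genes that prevent DNA re-replication in cancer cells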 (primary screen)
Cells: human HCT116 colorectal cancer cells
Knock-down reagent: single siRNA against human genes
Time to read-out: 3 days
Measurement: 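Imaged Hoechst DNA stain sorts each cell into a cycle phase by DNA amount; per plate, G2 fraction set to 0% for non-targeting and 100% for GMNN siRNA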
Scale: G2 robust z-score and G2 cells, % of GMNN control: higher = more G2 cells, more excess DNA replication
Rule for the call: 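Active siRNAs have a G2 robust z of 5 or more median absolute deviations over the median, which in these data means about 38% or higher of GMNN control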

LONP1 #1 — G2 robust z-score = 1.74; G2 cells, % of GMNN control = 15.2; activity call = inactive
LONP1 #2 — G2 robust z-score = -1.03; G2 cells, % of GMNN control = -4.26; activity call = inactive
LONP1 #3 — G2 robust z-score = -0.119; G2 cells, % of GMNN control = 2.13; activity call = inactive
VNN1 #1 — G2 robust z-score = 0.0136; G2 cells, % of GMNN control = 3.06; activity call = inactive
VNN1 #2 — G2 robust z-score = 3.49; G2 cells, % of GMNN control = 27.5; activity call = inactive
VNN1 #3 — G2 robust z-score = 0.0737; G2 cells, % of GMNN control = 3.49; activity call = inactive
ICE2 #1 — G2 robust z-score = 0.229; G2 cells, % of GMNN control = 4.58; activity call = inactive
ICE2 #2 — G2 robust z-score = -0.71; G2 cells, % of GMNN control = -2.03; activity call = inactive
ICE2 #3 — G2 robust z-score = -0.85; G2 cells, % of GMNN control = -3.01; activity call = inactive
PLCD3 #1 — G2 robust z-score = 0.038; G2 cells, % of GMNN control = 3.23; activity call = inactive
PLCD3 #2 — G2 robust z-score = 3.07; G2 cells, % of GMNN control = 24.5; activity call = inactive
PLCD3 #3 — G2 robust z-score = 0.935; G2 cells, % of GMNN control = 9.54; activity call = inactive
ADGRF3 #1 — G2 robust z-score = -0.266; G2 cells, % of GMNN control = 1.1; activity call = inactive
ADGRF3 #2 — G2 robust z-score = 2.23; G2 cells, % of GMNN control = 18.7; activity call = inactive
ADGRF3 #3 — G2 robust z-score = -0.00704; G2 cells, % of GMNN control = 2.92; activity call = inactive
RPUSD4 #1 — G2 robust z-score = -1.12; G2 cells, % of GMNN control = -4.89; activity call = inactive
RPUSD4 #2 — G2 robust z-score = 4.35; G2 cells, % of GMNN control = 33.6; activity call = inactive
RPUSD4 #3 — G2 robust z-score = 0.246; G2 cells, % of GMNN control = 4.7; activity call = inactive
KCND3 #1 — G2 robust z-score = -1.17; G2 cells, % of GMNN control = -5.25; activity call = inactive
KCND3 #2 — G2 robust z-score = 1.5; G2 cells, % of GMNN control = 13.5; activity call = inactive
KCND3 #3 — G2 robust z-score = -1.13; G2 cells, % of GMNN control = -5.01; activity call = inactive
BET1 #1 — G2 robust z-score = -0.836; G2 cells, % of GMNN control = -2.92; activity call = inactive
BET1 #2 — G2 robust z-score = 1.6; G2 cells, % of GMNN control = 14.2; activity call = inactive
BET1 #3 — G2 robust z-score = 4.93; G2 cells, % of GMNN control = 37.6; activity call = inactive

2 entries already listed, ordered by “G2 robust z-score”, highest first.
BET1 #1 — G2 robust z-score = -0.836; G2 cells, % of GMNN control = -2.92; activity call = inactive
KCND3 #3 — G2 robust z-score = -1.13; G2 cells, % of GMNN control = -5.01; activity call = inactive
